Measurements as given in PMC8539224.
No constants are given. Whether binding was seen depends on the method and setting. Binding can be weak; no strength is given.

The chains behind the UniProt entries cited, without tags or fusion partners. Where a name states a change or a piece, a line headed by the entry shows the natural chain unless it says otherwise.
UniProt Q9LQ89: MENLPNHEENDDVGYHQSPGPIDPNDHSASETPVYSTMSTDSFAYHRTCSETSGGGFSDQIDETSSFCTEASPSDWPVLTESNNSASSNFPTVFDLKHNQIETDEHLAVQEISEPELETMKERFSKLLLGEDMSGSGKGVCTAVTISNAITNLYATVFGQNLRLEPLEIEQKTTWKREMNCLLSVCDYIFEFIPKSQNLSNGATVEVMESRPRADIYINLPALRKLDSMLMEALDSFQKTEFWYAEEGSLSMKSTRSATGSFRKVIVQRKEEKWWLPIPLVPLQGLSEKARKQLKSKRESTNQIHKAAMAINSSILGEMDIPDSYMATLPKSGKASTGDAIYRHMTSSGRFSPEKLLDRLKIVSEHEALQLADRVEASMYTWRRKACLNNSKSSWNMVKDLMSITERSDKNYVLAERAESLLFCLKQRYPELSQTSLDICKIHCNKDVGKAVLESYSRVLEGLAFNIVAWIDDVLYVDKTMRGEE
UniProt P92978: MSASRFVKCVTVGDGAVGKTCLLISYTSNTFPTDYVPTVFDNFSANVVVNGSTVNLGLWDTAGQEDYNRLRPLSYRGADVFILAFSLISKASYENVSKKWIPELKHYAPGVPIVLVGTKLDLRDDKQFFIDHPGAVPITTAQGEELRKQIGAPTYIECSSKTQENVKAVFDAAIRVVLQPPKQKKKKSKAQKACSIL

Biological target: GEF2 (Arabidopsis RopGEF, upstream regulator of ROP1) (Arabidopsis thaliana) (UniProt Q9LQ89)
Test: two-hybrid; S. cerevisiae AH109 co-transformed with AtROP1 and its mutants in pGADT7-Dest and GEF2 or RIC2 in pGBKT7; leu- trp- selection for transformation, his- ade- selection for interaction (0, 1, 3 or 10 mM 3-AT where required)

binding | Substance
binds | Arabidopsis ROP1 GTPase, wild type (AtROP1 WT) (from UniProt P92978 1-197)
binds | Arabidopsis ROP1 GTPase S97A (from UniProt P92978 1-197)
binds | Arabidopsis ROP1 GTPase, constitutive active (G15V) with S97E (from UniProt P92978 1-197)
binds | Arabidopsis ROP1 GTPase S97E (from UniProt P92978 1-197)
binds | Arabidopsis ROP1 GTPase, constitutive active (G15V) with S97A (from UniProt P92978 1-197)
binds | Arabidopsis ROP1 GTPase, constitutive active (CA, G15V) (from UniProt P92978 1-197)
